Test [1] concerns the target S1P3 (Homo sapiens, UniProt Q99500). The test is described as follows: Receptor binding assay, [33P]sphingosine 1-phosphate competition, S1P3. The settings on record: tested form: HCl. The protocol: (§1) Membranes Preparation: Membranes were prepared from CHO cells expressing S1P1 or S1P3 for use in ligand and 35S-GTPγS binding studies. Cells were suspended in 50 mM TRIS, pH 7.4, 2 mM EDTA, 250 mM Sucrose (buffer A) and 1× Complete protease inhibitor cocktail (Roche), and disrupted at 4° C. by N2 decompression using a cell disruption bomb (Parr Instrument). Following centrifugation at 1000 RPM for 10 min at 4° C., the supernatant was diluted (2×) in buffer A and centrifuged again at 19000 RPM for 75 min at 4° C. The pellet was then suspended in 10 mM HEPES, pH 7.4, 1 mM EDTA, 250 mM Sucrose (Buffer B), and 1× Complete EDTA-free protease inhibitor cocktail and homogenized using a potter. Membranes were flash frozen in liquid N2 and stored at −80° C.
(§2) Receptor binding assay: [33P]sphingosine 1-phosphate (3000 Ci/mmol; American Radiolabeled Chemicals, Inc.) was added to test compounds in 20% DMSO by competition. […] Binding was performed for 60 min at RT on a shaker and bound radioactivity was measured on a PerkinElmer 1450 MicroBeta counter. […] Binding data were analyzed using the GraphPad Prism program or Genedata software.

Protein sequences, listed by entry. Tags and fused reporters are not part of them. Chains listed by the source or under a name are the forms on record and can include a tag or linker. Residues count along the entry.
UniProt Q99500, whole entry: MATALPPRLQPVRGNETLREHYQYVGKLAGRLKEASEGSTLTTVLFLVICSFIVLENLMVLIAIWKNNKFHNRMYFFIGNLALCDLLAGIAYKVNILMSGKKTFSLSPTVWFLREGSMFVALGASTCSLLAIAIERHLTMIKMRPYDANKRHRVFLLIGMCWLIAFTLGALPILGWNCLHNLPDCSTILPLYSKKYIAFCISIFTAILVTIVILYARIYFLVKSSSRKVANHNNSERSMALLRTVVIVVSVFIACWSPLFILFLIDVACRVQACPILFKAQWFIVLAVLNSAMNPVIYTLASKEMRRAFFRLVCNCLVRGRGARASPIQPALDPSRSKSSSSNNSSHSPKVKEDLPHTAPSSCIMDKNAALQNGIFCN
UniProt P21453, whole entry: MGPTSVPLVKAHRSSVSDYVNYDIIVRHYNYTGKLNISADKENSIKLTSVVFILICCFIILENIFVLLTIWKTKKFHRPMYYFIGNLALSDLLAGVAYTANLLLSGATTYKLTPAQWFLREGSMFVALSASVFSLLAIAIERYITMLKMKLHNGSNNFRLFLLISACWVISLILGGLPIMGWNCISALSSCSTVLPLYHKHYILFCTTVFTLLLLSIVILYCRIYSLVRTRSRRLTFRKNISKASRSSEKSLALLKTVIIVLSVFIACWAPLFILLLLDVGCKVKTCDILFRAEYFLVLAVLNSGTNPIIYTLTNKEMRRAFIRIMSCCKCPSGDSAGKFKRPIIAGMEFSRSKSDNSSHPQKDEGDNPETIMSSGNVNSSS
UniProt P21453, 1-382 with tags or gaps: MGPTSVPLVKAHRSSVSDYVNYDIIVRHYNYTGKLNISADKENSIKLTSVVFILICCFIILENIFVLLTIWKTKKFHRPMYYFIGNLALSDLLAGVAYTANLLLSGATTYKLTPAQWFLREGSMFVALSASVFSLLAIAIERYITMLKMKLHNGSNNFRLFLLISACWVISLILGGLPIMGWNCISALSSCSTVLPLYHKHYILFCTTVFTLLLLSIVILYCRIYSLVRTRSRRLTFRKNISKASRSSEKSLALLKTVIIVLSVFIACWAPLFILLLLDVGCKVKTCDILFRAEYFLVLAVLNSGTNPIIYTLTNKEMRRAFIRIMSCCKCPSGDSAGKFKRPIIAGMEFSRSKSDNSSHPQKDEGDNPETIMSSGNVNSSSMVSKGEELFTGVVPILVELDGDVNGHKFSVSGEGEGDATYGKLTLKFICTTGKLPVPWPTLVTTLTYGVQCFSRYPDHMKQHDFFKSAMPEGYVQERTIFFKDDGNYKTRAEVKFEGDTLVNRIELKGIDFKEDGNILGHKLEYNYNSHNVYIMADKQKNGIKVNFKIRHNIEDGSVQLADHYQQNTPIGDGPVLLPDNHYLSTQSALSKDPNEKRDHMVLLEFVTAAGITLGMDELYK

Test [2] deals with S1P1 (Homo sapiens, UniProt P21453). Nature of the test: Receptor binding assay, [33P]sphingosine 1-phosphate competition, S1P1. The settings on record: tested form: HCl. Here is the method:
as §1, §2

The target of test [3] is human S1P1 Receptor fused to the green fluorescent protein (EGFP) (Homo sapiens, UniProt P21453). The test is described as follows: Internalization of S1P1 in S1P1-U2OS cells by cell imaging analysis. The note with it: read-out: S1P1 Internalization EC50, 1 hour incubation, 384-well, tested form: HCl. The protocol:
Cellular Functional Assays: Internalization of Sphingosine-1-Phosphate Receptor 1 (S1P1) in a Human Cell Line (U2OS) in a 384-Well Format Using a Cell Imaging Analysis.
The S1P1 internalization assay was performed in 384 well plates (Corning® 384 black with clear bottom 3712) using S1P1-U2OS cells from BioImage (C039A), a human epithelial cell line (Human Bone Osteosarcoma Epithelial Cells). These cells expressed the human S1P1 Receptor fused to the green fluorescent protein (EGFP). A standard CMV promoter (cytomegalovirus promoter) controls the expression of S1P1-EGFP and continuous expression was maintained by addition of geneticin to the culture medium.
S1P1 Receptor desensitization induced the internalization of the membrane-localized S1P1-EGFP fusion protein to endosomes, which can be monitored by cell imaging analysis.
The cells are plated in low serum medium (Dulbecco's Modified Eagle Medium (DMEM) with Glutamax-1 and high glucose, 1% Penicillin/Streptomycin, 1% Fetal Calf Serum (FCS), 0.5 mg/ml Geneticin) overnight. […]
The internalization of the receptor S1P1-EGFP is measured on Cellomics by calculating the “spot count per object” (“object” corresponds to nuclear and “spot” corresponds to S1P1-EGFP receptor). Internalization data were observed thanks to vHCS View and analyzed using Genedata® software.

Drawing on patent US20110306636A1, “OXAZOLE PYRIDINE DERIVATIVES USEFUL AS S1P1 RECEPTOR AGONISTS” (Merck Serono SA, priority 2009, published 2011), this text covers IC50 and EC50 for 1 molecule.

The structures appear in SMILES notation. pEC50: −log10 of the molar value. Where two headings read alike, the source gives them in different places. Structures were worked out from names or drawings and are uncertain.

Take `Cc1cc(-c2noc(-c3ccc(-c4ccccc4F)c(C(F)(F)F)c3)n2)cnc1NCCC(=O)O`: the IC50 in test [1] (read-out: S1P3 binding IC50 (M) (96 well-plate), 96 well-plate) stood at 9.99e-06 M; in test [1] (read-out: S1P3 binding IC50 (M) (384 well-plate), 384 well-plate), 8.32e-06 M; in test [2] (read-out: S1P1 binding IC50 (M) (96 well-plate), 96 well-plate) it was 1.09e-08 M; in test [2] (read-out: S1P1 binding IC50 (M) (384 well-plate), 384 well-plate), 2.11e-08 M. Besides, the pEC50 in test [3] was 6.90.
